Some entries share one result that the patent states for a list of compounds.
What follows are compounds tested against T1, human recombinant P2X7 receptors (Homo sapiens, UniProt Q99572) (assay: Fluorescent Imaging Plate Reader (FLIPR) Ca Assay). Conditions: HEK293 cells expressing human recombinant P2X7; blocking BzATP responses; tested in one and/or the other assay.
T1 construct: expressed in transfected cells; host or cells: HEK293
T1 sequence (Q99572 1-595): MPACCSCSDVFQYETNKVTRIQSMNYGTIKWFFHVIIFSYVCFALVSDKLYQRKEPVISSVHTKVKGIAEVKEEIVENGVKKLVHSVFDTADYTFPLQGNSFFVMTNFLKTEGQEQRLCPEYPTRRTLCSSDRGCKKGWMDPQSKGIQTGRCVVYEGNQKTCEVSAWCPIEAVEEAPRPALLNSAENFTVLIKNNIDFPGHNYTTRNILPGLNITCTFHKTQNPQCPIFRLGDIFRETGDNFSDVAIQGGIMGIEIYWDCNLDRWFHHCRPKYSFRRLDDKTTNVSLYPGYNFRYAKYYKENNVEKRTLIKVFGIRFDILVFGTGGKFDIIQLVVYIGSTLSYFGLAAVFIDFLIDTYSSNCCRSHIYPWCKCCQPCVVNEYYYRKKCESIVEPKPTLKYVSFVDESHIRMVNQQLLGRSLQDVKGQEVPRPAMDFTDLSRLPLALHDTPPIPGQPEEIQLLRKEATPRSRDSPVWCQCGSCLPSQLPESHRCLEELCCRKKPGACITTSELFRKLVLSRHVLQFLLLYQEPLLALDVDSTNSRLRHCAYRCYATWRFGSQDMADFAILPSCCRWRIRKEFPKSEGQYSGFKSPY
Type: cell-based

p1050 values in the FLIPR Ca Assay (human P2X7 receptor antagonist activity), > 4.7:
Cc1nn(CCN(C)CCO)c(C)c1CC(=O)NCc1ccc(F)cc1Cl [Example 141, N-[(2-chloro-4-fluorophenyl)methyl]-2-(1-{2-[(2-hydroxyethyl)(methyl)amino]ethyl}-3,5-dimethyl-1H-pyrazol-4-yl)acetamide]
O=C(Cc1cnn(-c2ccc(F)cc2)c1C(F)(F)F)NCc1ccc(F)cc1Cl [Example 114, N-[(2-chloro-4-fluorophenyl)methyl]-2-[1-(4-fluorophenyl)-5-(trifluoromethyl)-1H-pyrazol-4-yl]acetamide]
Cc1nn(-c2nccc(C(F)(F)F)n2)c(C)c1CC(=O)NCc1ccc(F)cc1Cl [Example 81, N-[(2-chloro-4-fluorophenyl)methyl]-2-{3,5-dimethyl-1-[4-(trifluoromethyl)-2-pyrimidinyl]-1H-pyrazol-4-yl}acetamide]
CCn1nc(C)c(CC(=O)NCc2ccc(F)cc2Cl)c1C [Example 108, N-[(2-chloro-4-fluorophenyl)methyl]-2-(1-ethyl-3,5-dimethyl-1H-pyrazol-4-yl)acetamide]
Cc1cccc(C)c1CNC(=O)Cc1c(C)nn(-c2ccccc2)c1C [Example 28, N-[(2,6-dimethylphenyl)methyl]-2-(3,5-dimethyl-1-phenyl-1H-pyrazol-4-yl)acetamide]
CCOc1cccc(-n2cc(CC(=O)NCc3ccc(F)cc3Cl)cn2)n1 [Example 169, N-[(2-chloro-4-fluorophenyl)methyl]-2-{1-[6-(ethyloxy)-2-pyridinyl]-1H-pyrazol-4-yl}acetamide]
O=C(Cc1cnn(CCO)c1C(F)(F)F)NCc1ccc(F)cc1Cl [Example 173, N-[(2-chloro-4-fluorophenyl)methyl]-2-[1-(2-hydroxyethyl)-5-(trifluoromethyl)-1H-pyrazol-4-yl]acetamide]
Cc1ccc(C)c(CNC(=O)Cc2c(C)nn(-c3ccccc3)c2C)c1 [Example 23, N-[(2,5-dimethylphenyl)methyl]-2-(3,5-dimethyl-1-phenyl-1H-pyrazol-4-yl)acetamide]
Cc1nn(C2CCCC2)c(C)c1CC(=O)NCc1ccc(F)cc1Cl [Example 86, N-[(2-chloro-4-fluorophenyl)methyl]-2-(1-cyclopentyl-3,5-dimethyl-1H-pyrazol-4-yl)acetamide]
Cc1nn(-c2ccc(F)cc2F)c(C)c1CC(=O)NCc1ccc(F)cc1Cl [Example 53, N-[(2-chloro-4-fluorophenyl)methyl]-2-[1-(2,4-difluorophenyl)-3,5-dimethyl-1H-pyrazol-4-yl]acetamide]
COc1cccc(-n2nc(C)c(CC(=O)NCc3ccc(F)cc3Cl)c2C)c1 [Example 58, N-[(2-chloro-4-fluorophenyl)methyl]-2-{3,5-dimethyl-1-[3-(methyloxy)phenyl]-1H-pyrazol-4-yl}acetamide]
COc1ncccc1-n1nc(C)c(CC(=O)NCc2ccc(F)cc2Cl)c1C [Example 172, N-[(2-chloro-4-fluorophenyl)methyl]-2-{3,5-dimethyl-1-[2-(methyloxy)-3-pyridinyl]-1H-pyrazol-4-yl}acetamide]
Cc1nn(-c2ccc(Cl)cc2)c(C)c1CC(=O)NCc1ccc(F)cc1Cl [Example 54, N-[(2-chloro-4-fluorophenyl)methyl]-2-[1-(4-chlorophenyl)-3,5-dimethyl-1H-pyrazol-4-yl]acetamide]
Cc1nn(-c2ccccc2)c(C)c1CC(=O)NCc1cc(Cl)ccc1Cl [Example 42, N-[(2,5-dichlorophenyl)methyl]-2-(3,5-dimethyl-1-phenyl-1H-pyrazol-4-yl)acetamide]
Cc1nn(CC(C)(C)C)c(C)c1CC(=O)NCc1ccc(F)cc1Cl [Example 94, N-[(2-chloro-4-fluorophenyl)methyl]-2-[1-(2,2-dimethylpropyl)-3,5-dimethyl-1H-pyrazol-4-yl]acetamide]
Cc1nn(CC(=O)O)c(C)c1CC(=O)NCc1ccc(F)cc1Cl [Example 126, [4-(2-{[(2-chloro-4-fluorophenyl)methyl]amino}-2-oxoethyl)-3,5-dimethyl-1H-pyrazol-1-yl]acetic acid]
Cc1nn(-c2ccccc2)c(C)c1CC(=O)NCc1cc(F)ccc1F [Example 11, N-[(2,5-difluorophenyl)methyl]-2-(3,5-dimethyl-1-phenyl-1H-pyrazol-4-yl)acetamide]
Cc1nn(-c2ccccc2)c(C)c1CC(=O)NCc1ccc(C#N)cc1 [Example 33, N-[(4-cyanophenyl)methyl]-2-(3,5-dimethyl-1-phenyl-1H-pyrazol-4-yl)acetamide]
Cc1nn(-c2ccccc2Cl)c(C)c1CC(=O)NCc1ccc(F)cc1Cl [Example 60, N-[(2-chloro-4-fluorophenyl)methyl]-2-[1-(2-chlorophenyl)-3,5-dimethyl-1H-pyrazol-4-yl]acetamide]
Cc1nn(-c2ccccc2)c(C)c1CC(=O)NCc1ccc(F)cc1Cl [Example 9, N-[(2-chloro-4-fluorophenyl)methyl]-2-(3,5-dimethyl-1-phenyl-1H-pyrazol-4-yl)acetamide]
CCOC(=O)Cn1nc(C)c(CC(=O)NCc2ccc(F)cc2Cl)c1C [Example 125, Ethyl[4-(2-{[(2-chloro-4-fluorophenyl)methyl]amino}-2-oxoethyl)-3,5-dimethyl-1H-pyrazol-1-yl]acetate]
Cc1ccc(-n2nc(C)c(CC(=O)NCc3ccc(F)cc3Cl)c2C)nn1 [Example 78, N-[(2-chloro-4-fluorophenyl)methyl]-2-[3,5-dimethyl-1-(6-methyl-3-pyridazinyl)-1H-pyrazol-4-yl]acetamide]
Cc1ccc(F)cc1CNC(=O)Cc1c(C)nn(-c2ccccc2)c1C [Example 31, 2-(3,5-dimethyl-1-phenyl-1H-pyrazol-4-yl)-N-[(5-fluoro-2-methylphenyl)methyl]acetamide]
Cc1nn(-c2ccccc2)c(C)c1CC(=O)NCc1ccc(C(F)(F)F)cc1 [Example 5, 2-(3,5-dimethyl-1-phenyl-1H-pyrazol-4-yl)-N-{[4-(trifluoromethyl)phenyl]methyl}acetamide]
Cc1ccc(-n2nc(C)c(CC(=O)NCc3ccc(F)cc3Cl)c2C)cc1 [Example 62, N-[(2-chloro-4-fluorophenyl)methyl]-2-[3,5-dimethyl-1-(4-methylphenyl)-1H-pyrazol-4-yl]acetamide]

Reference: patent US20110046137A1, “Pyrazole Derivatives as P2X7 Modulators” (Glaxo Group Limited, priority 2007, published 2011)
